Experiment: Filtration time and cake thickness
Details: trihydrate; for Filtration time Solid-liquid separation: Nutsche, outer diameter 70 mm, reduced pressure; for Filtration time Washing: washing with 20 mL acetone/water (35:65)

COc1ccc2[n-]c([S@@+]([O-])Cc3ncc(C)c(OC)c3C)nc2c1.COc1ccc2[n-]c([S@@+]([O-])Cc3ncc(C)c(OC)c3C)nc2c1.O.O.O.[Mg+2] [Example 10(2), esomeprazole magnesium trihydrate]
Filtration time Solid-liquid separation: 2 min | Cake thickness After compression: 11 mm | Cake thickness Before compression: 20 mm | Filtration time Washing: 14 min

COc1ccc2[n-]c([S@@+]([O-])Cc3ncc(C)c(OC)c3C)nc2c1.COc1ccc2[n-]c([S@@+]([O-])Cc3ncc(C)c(OC)c3C)nc2c1.O.O.O.[Mg+2] [Example 10(1), esomeprazole magnesium trihydrate]
Filtration time Solid-liquid separation: 1 min | Cake thickness After compression: 10 mm | Cake thickness Before compression: 10 mm | Filtration time Washing: 0.2 min
